PubChem BioAssay AID1224830, NIAID, 2016

- Screen: 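Regulators of TLR4 signalling towards TNF-alpha in macrophage-like cells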 (primary screen)
- Cell system: human THP-1 monocytic leukaemia cells, TNF dual-luciferase reporter clone, PMA-differentiated to macrophage-like cells
- Reagents: siRNA pool against human genes, 50 nM
- Time to read-out: LPS for 4 h, given about 3 days after siRNA transfection
- Treatment: bacterial LPS (TLR4 ligand), 10 ng/ml
- Read-out: 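Ratio of firefly to renilla light, scaled to the plate median and expressed as a robust z-score per replicate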
- Reading the numbers: TNF reporter robust z-score: higher = stronger TNF reporter response to LPS
- Rule for the call: 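a well is active when its z-score exceeds 2.8 or falls below -1.5; control wells carry no call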
The deposit covers about 18,000 reagents; shown is a random part of them. Over the whole deposit, about 2,900 (16%) are marked active. 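Calls are made per well; low scores hint the gene aids the LPS response, high scores that it dampens it.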 Repeated entries: four replicate wells of each siRNA pool. Reagent sequences are not shown.

Depletion of THEM6 gave: TNF reporter robust z-score -0.68; inactive.
After knock-down of THEM6, the record shows TNF reporter robust z-score 0.44; inactive.
With knock-down of THEM6, the record shows TNF reporter robust z-score 0.51; inactive.
With knock-down of THEM6, the record shows TNF reporter robust z-score -0.55; inactive.
For SELENOI, the values are TNF reporter robust z-score 0; inactive.
Knock-down of SELENOI resulted in: TNF reporter robust z-score 0.43; inactive.
Against SELENOI, the entry reads TNF reporter robust z-score 0.44; inactive.
With knock-down of SELENOI the results were TNF reporter robust z-score 0.85; inactive.
PDP2 gave TNF reporter robust z-score 0.27; inactive.
After knock-down of PDP2, the record shows TNF reporter robust z-score -0.96; inactive.
PDP2 gave TNF reporter robust z-score 0.51; inactive.
Against PDP2, the values are TNF reporter robust z-score -0.9; inactive.
PJA2 showed TNF reporter robust z-score -1.41; inactive.
Against PJA2, the values are TNF reporter robust z-score -0.24; inactive.
PJA2 gave TNF reporter robust z-score -0.29; inactive.
For PJA2 the deposit lists TNF reporter robust z-score 0.64; inactive.
Silencing of NOTCH1 gave: TNF reporter robust z-score -0.58; inactive.
Depletion of NOTCH1 resulted in: TNF reporter robust z-score -1.37; inactive.
NOTCH1 gave TNF reporter robust z-score 0.94; inactive.
With knock-down of NOTCH1 the results were TNF reporter robust z-score 0.11; inactive.
With knock-down of KCNK15, the screen gave TNF reporter robust z-score -1.11; inactive.
For KCNK15, the values are TNF reporter robust z-score 0.04; inactive.
KCNK15 showed TNF reporter robust z-score 0.03; inactive.
KCNK15 scored TNF reporter robust z-score -0.35; inactive.
With knock-down of RNF2, the screen gave TNF reporter robust z-score 2.12; inactive.
For RNF2 the deposit lists TNF reporter robust z-score 0.68; inactive.
With knock-down of RNF2 the results were TNF reporter robust z-score 0.82; inactive.
RNF2 scored TNF reporter robust z-score 0.66; inactive.
SLC26A7 showed TNF reporter robust z-score -0.07; inactive.
Depletion of SLC26A7 came out at: TNF reporter robust z-score 1.17; inactive.
SLC26A7 gave TNF reporter robust z-score 0.7; inactive.
Depletion of SLC26A7 resulted in: TNF reporter robust z-score 0.5; inactive.

Targets above whose gene name starts with N or n:
NOTCH1 — TNF reporter robust z-score: -0.58; Call: inactive
NOTCH1 — TNF reporter robust z-score: -1.37; Call: inactive
NOTCH1 — TNF reporter robust z-score: 0.94; Call: inactive
NOTCH1 — TNF reporter robust z-score: 0.11; Call: inactive
